No constants are given. Whether binding was seen depends on the method and setting. In cells and extracts the contact can be indirect. Some results given as binding are weak or reduced against the parent protein; the word gives no strength.
How the values were obtained:
TSPAN9 (WT), transfected = biological target: T1, TSPAN9 (WT), transfected (UniProt O75954); test: co-IP; AGS cells transfected with TSPAN9 (WT) or TSPAN9 (Y153D); lysates immunoprecipitated with antibodies to p55 and TSPAN9, Western blot
T1 sequence: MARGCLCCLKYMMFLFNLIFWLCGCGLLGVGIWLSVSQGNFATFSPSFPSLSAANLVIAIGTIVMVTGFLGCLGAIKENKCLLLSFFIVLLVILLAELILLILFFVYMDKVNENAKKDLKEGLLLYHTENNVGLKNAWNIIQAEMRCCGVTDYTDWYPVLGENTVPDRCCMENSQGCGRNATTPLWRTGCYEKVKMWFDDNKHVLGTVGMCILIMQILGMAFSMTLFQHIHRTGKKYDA

[1] = biological target: T2, TSPAN9 (endogenous, 5-FU-resistant gastric cancer cells) (human (endogenous in AGS/R)) (UniProt O75954); test: co-IP; lysates of AGS/R cells stimulated with 5-FU; immunoprecipitation with anti-TSPAN9 on Protein A agarose, immunoblot with anti-p55; endogenous proteins
T2 sequence: T1 sequence

## PIK3R3 (p55), regulatory subunit of PI3K (from UniProt Q92569 1-461)
TSPAN9 (WT), transfected
  binding: binds
[1]
  binding: binds

Reference: PMC6942356
